Source: PubChem BioAssay AID602196 (INSERM, 2012)
Purpose: 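Knock-downs that protect lung cancer cells from cisplatin or sensitise them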. Cell system: human A549 lung cancer cells. Knock-down reagent: siRNA pair against human genes. Timing: 48 h transfection before cisplatin; time from cisplatin to read-out not stated. Challenge: cisplatin at a dose killing half of control-siRNA cells; exact dose and duration not given. Measurement: 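Cisplatin cell death as a shift from the 50% death seen with control siRNA; siRNAs toxic or growth-blocking alone scored 0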. Scale: two-siRNA summed score (-2 to +2): higher = both siRNAs protect from cisplatin killing; -2 means both sensitise; mean protection from cisplatin (shift in death) and protection from cisplatin (shift in death), siRNA C and protection from cisplatin (shift in death), siRNA D: higher = protection from cisplatin killing. Call rule: 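Each siRNA scores 0 if harmful alone by LDH or WST-1, otherwise +1 if it reduces and -1 if it increases cisplatin killing; a gene is active when both siRNAs agree (sum +2 or -2)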. Meaning of the calls: active = both siRNAs shift cisplatin killing the same way; inactive = no consistent shift, or siRNA harmful alone.
Here is one part, drawn at random, of about 23,000 deposited reagents. Of all reagents, 455 (2%) are marked active. 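Active includes both protection and sensitisation; some change values fall well beyond the stated -50 to +50 range.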 A number with no mark means an inactive call. The record does not give: the amount of reagent.

no.	gene knocked down	two-siRNA summed score (-2 to +2)	mean protection from cisplatin (shift in death) (%)	protection from cisplatin (shift in death), siRNA C (%)	protection from cisplatin (shift in death), siRNA D (%)
1	ABHD3 (abhydrolase domain containing 3, phospholipase)	1	13.1	17.6	8.5
2	RNASEH2C (ribonuclease H2 subunit C)	0	-1.6	1	-4.1
3	PNMA8A (PNMA family member 8A)	0	5	5	5
4	CD300LG (CD300 molecule like family member g)	0	0.4	8.9	-8
5	BCL9L (BCL9 like)	1	6.7	16.8	-3.5
6	LOC399972	0	9.6	16.2	3.1
7	STK40 (serine/threonine kinase 40)	0	11.7	17	6.3
8	GALT (galactose-1-phosphate uridylyltransferase)	0	-2.4	-2.8	-1.9
9	LOC440134	1	4.7	-1.7	11.2
10	RACGAP1P1 (Rac GTPase activating protein 1 pseudogene 1)	0	20	26.8	13.3
11	KBTBD7 (kelch repeat and BTB domain containing 7)	0	6.6	4.3	8.9
12	KCNIP4 (potassium voltage-gated channel interacting protein 4)	0	2.1	-2.1	6.2
13	MT3 (metallothionein 3)	0	3.3	16	-9.4
14	ARGLU1 (arginine and glutamate rich 1)	0	-1.1	-0.7	-1.6
15	DPY19L3 (dpy-19 like C-mannosyltransferase 3)	1	5.8	24.3	-12.8
16	LOC399851 (retired record)	1	8.9	17.5	0.4
17	ADAMTS2 (ADAM metallopeptidase with thrombospondin type 1 motif 2)	0	1.8	1.8	1.7
18	DMP1 (dentin matrix acidic phosphoprotein 1)	1	4.6	0.3	8.9
19	DPP9 (dipeptidyl peptidase 9)	1	8	-5.9	21.9
20	RNASE7 (ribonuclease A family member 7)	0	-6.5	-5.3	-7.7
21	LINC01777 (long independently transcribed non-coding RNA 1777)	0	2.4	-1.3	6.1
22	DYNC2H1 (dynein cytoplasmic 2 heavy chain 1)	1	10.1	2.7	17.5
23	FLYWCH2 (FLYWCH family member 2)	0	-3.9	-15.9	8.2
24	AMIGO3 (adhesion molecule with Ig like domain 3)	1	22.9	24.9	20.9
25	EIF4ENIF1	-1	-10.1	-22.4	2.2
26	LINC00484 (long independently transcribed non-coding RNA 484)	0	3.5	-0.4	7.4
27	RIMS2 (regulating synaptic membrane exocytosis 2)	0	2.9	-1.9	7.6
28	OR5B2 (olfactory receptor family 5 subfamily B member 2)	1	14.8	14.2	15.4
29	LOC286103	0	8.1	6	10.2
30	LOC440493	1	3.2	-9.5	15.9
31	ENTHD1 (ENTH domain containing 1)	0	6	0.8	11.2
32	LOC440179	0	7.5	12.2	2.9
33	ABCA12 (ATP binding cassette subfamily A member 12)	0	-6.1	-8.2	-4
34	HDGFL2 (HDGF like 2)	1	8.9	5.6	12.2
35	SAMHD1	0	-7.9	-11.8	-4
36	LOC401607	0	4	0.1	8
37	LOC440844	1	7.9	13	2.8
38	LOC440160	0	9.4	4.7	14.2
39	ST7 (suppression of tumorigenicity 7)	0	-0.1	4.3	-4.6
40	FLJ44674 (retired record)	1	10.7	1.6	19.8
41	SS18 (SS18 subunit of BAF chromatin remodeling complex)	-1	-7	-18.3	4.3
42	IFNGR1 (interferon gamma receptor 1)	-1	-12	-14.3	-9.6
43	PACSIN1 (protein kinase C and casein kinase substrate in neurons 1)	2 (active)	18.1	14.6	21.6
44	ZNF501 (zinc finger protein 501)	1	10.4	13.2	7.7
45	C12orf43 (chromosome 12 open reading frame 43)	0	5.7	-0.3	11.7
46	KLK8 (kallikrein related peptidase 8)	0	-12.6	-17.3	-7.9
47	ZNF221 (zinc finger protein 221)	1	7.1	3.6	10.6
48	EEF1AKMT3 (EEF1A lysine methyltransferase 3)	0	6.4	4.5	8.2
49	PP2D1 (protein phosphatase 2C like domain containing 1)	1	11.3	23.6	-1
50	FABP7 (fatty acid binding protein 7)	0	6.2	18.9	-6.5
51	PRKDC (protein kinase, DNA-activated, catalytic subunit)	0	2.3	9.1	-4.5
52	ACVRL1 (activin A receptor like type 1)	0	15.8	16.6	15.1
53	SUGT1 (SGT1 assembly cochaperone of MIS12 kinetochore complex)	0	1.6	5.5	-2.3
54	KLHL35 (kelch like family member 35)	0	-2.9	3.9	-9.7
55	TRPC1	0	19.6	9.2	30
56	TBXAS1 (thromboxane A synthase 1)	0	-28.6	-47.2	-10.1
57	FRG2C (FSHD region gene 2 family member C)	0	4.7	3.6	5.7
58	PHETA1 (PH domain containing endocytic trafficking adaptor 1)	1	23	26.7	19.3
59	STK32C (serine/threonine kinase 32C)	0	1.7	-1.7	5.1
60	C14orf119 (chromosome 14 open reading frame 119)	0	-1.2	-4.9	2.6
61	TSPY1 (testis specific protein Y-linked 1)	0	1.7	-2	5.4
62	FN1 (fibronectin 1)	-1	4.3	-19.2	27.8
63	FOXO4 (forkhead box O4)	0	-3.5	-10.2	3.2
64	LOC440567	0	9.7	6.3	13.1
65	EPN1 (epsin 1)	0	11.5	19.7	3.2
66	LDAH (lipid droplet associated hydrolase)	0	3.3	0.4	6.1
67	FLJ40176	0	7.3	10.4	4.2
68	GTF2F1 (general transcription factor IIF subunit 1)	0	7.7	6.6	8.8
69	LOC390669	0	14.5	18.3	10.8
70	LOC391004	1	15.5	13.2	17.8
71	EIF4B (eukaryotic translation initiation factor 4B)	1	2.6	-5	10.3
72	LINC02591 (long independently transcribed non-coding RNA 2591)	0	1.6	6.7	-3.4
73	B3GALNT2 (beta-1,3-N-acetylgalactosaminyltransferase 2)	0	4.1	7.1	1.1
